Tests used:
maize endosperm AGPase [1] = assay: Pi inhibition in the presence of 3-PGA; assay type: biochemical; settings: P-MT partial mixed type, L-MT linear mixed type
From the text: (§1) (2) v=Vm(S/Ks+(βSI)/(αKiKs))/(1+S/Ks+I/Ki+SI/αKiKs)P-MT
(§2) (3) v=Vm(S/Ks)/(1+S/Ks+I/Ki+SI/αKiKs)L-MT

maize endosperm AGPase [2] = assay: Pi inhibition in the absence of 3-PGA; assay type: biochemical; settings: P-MT partial mixed type
From the text: as §1, §2

Measured: Pattern of Pi inhibition

B1: wt: wild type maize endosperm AGPase: SH2 large subunit with BT2 small subunit, expressed in E. coli (protein, UniProt P55241 46-516; P55241 46-516, looked up)
Glucose-1-phosphate … 1: FGGRVAATTQCILTSDACPETLHSQTQSSRKNYADANRVSAIILGGGTGSQLFPLTSTRATPAVPVGGCYRLIDIPMSNCFNSGINKIFVMSQFNSTSLNRHIHRTYLEGGINFADGSVQVLAATQMPEEPAGWFQGTADSIRKFIWVLEDYYSHKSIDNIVILSGDQLYRMNYMELVQKHVEDDADITISCAPVDESRASKNGLVKIDHTGRVLQFFEKPKGADLNSMRVETNFLSYAIDDAQKYPYLASMGIYVFKKDALLDLLKSKYTQLHDFGSEILPRAVLDHSVQACIFTGYWEDVGTIKSFFDANLALTEQPSKFDFYDPKTPFFTAPRCLPPTQLDKCKMKYAFISDGCLLRECNIEHSVIGVCSRVSSGCELKDSVMMGADTYETEEEASKLLLAGKVPVGIGRNTKIRNCIIDMNARIGKNVVITNSKGIQEADHPEEGYYIRSGIVVILKNATINDGSVI
Glucose-1-phosphate … 2: FGGRVAATTQCILTSDACPETLHSQTQSSRKNYADANRVSAIILGGGTGSQLFPLTSTRATPAVPVGGCYRLIDIPMSNCFNSGINKIFVMSQFNSTSLNRHIHRTYLEGGINFADGSVQVLAATQMPEEPAGWFQGTADSIRKFIWVLEDYYSHKSIDNIVILSGDQLYRMNYMELVQKHVEDDADITISCAPVDESRASKNGLVKIDHTGRVLQFFEKPKGADLNSMRVETNFLSYAIDDAQKYPYLASMGIYVFKKDALLDLLKSKYTQLHDFGSEILPRAVLDHSVQACIFTGYWEDVGTIKSFFDANLALTEQPSKFDFYDPKTPFFTAPRCLPPTQLDKCKMKYAFISDGCLLRECNIEHSVIGVCSRVSSGCELKDSVMMGADTYETEEEASKLLLAGKVPVGIGRNTKIRNCIIDMNARIGKNVVITNSKGIQEADHPEEGYYIRSGIVVILKNATINDGSVI
modifications: expressed in E. coli
P-MT: maize endosperm AGPase [1]; varied substrate ATP | maize endosperm AGPase [1]; varied substrate G-1-P | maize endosperm AGPase [2]; varied substrate ATP | maize endosperm AGPase [2]; varied substrate G-1-P
